# PubChem BioAssay AID1671190 (National Center for Advancing Translational Sciences (NCATS), 2021)
# By UniProt entry, the sequences of proteins in these tests, tags left out. Where a name states a change or a piece, a line headed by the entry shows the natural chain unless it says otherwise.
# UniProt P18054: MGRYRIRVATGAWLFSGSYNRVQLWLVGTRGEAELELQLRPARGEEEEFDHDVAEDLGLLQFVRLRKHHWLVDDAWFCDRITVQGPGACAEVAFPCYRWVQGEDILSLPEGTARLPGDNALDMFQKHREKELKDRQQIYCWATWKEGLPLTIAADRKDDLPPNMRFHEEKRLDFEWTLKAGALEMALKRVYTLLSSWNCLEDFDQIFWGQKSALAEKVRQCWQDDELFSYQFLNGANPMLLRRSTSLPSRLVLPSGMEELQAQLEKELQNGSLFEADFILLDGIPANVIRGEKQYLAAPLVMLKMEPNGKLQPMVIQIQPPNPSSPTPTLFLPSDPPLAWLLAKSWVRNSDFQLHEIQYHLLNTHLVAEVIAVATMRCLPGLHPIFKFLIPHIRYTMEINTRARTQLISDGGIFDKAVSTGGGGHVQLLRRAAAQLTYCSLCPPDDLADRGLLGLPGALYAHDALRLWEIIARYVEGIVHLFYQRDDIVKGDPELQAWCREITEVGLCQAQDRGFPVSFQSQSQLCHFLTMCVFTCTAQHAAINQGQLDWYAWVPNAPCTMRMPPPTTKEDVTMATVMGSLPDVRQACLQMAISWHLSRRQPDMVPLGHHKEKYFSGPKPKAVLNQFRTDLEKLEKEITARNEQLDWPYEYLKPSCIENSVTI
# Where “and” joins values, the source holds several entries; their conditions need not be identical. Equal values may be shown once. Among all 580,000 compounds or so, about 6,100 (1.1%) were called active. The shares of active, inactive and inconclusive entries below differ from those in the screen. Calls come from the whole dose curve; as a rule, active = well fitted inhibition curve with a large enough effect; inconclusive = small, poorly fitted or top-dose-only effect, or another doubt; inactive = no such curve, though single readings can be large or run the other way. Where the call is inconclusive, the potency comes from a doubtful curve fit.
# Target: Polyunsaturated fatty acid lipoxygenase ALOX12 (Homo sapiens) (UniProt P18054)
# Assay: Primary qHTS assay for inhibitors of human arachidonate 12S-lipoxygenase (ALOX12): Round 2
# Conditions: purified 12hLO, xylenol orange hydroperoxide absorbance; activity change, negative = inhibition: at 108 µM (top of the series) unless noted
# In short: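 Purified human 12hLO (150 nM final) in 25 mM Hepes, 0.01% Triton X-100, pH 7.0 was preincubated 15 min at room temperature with compound. Then 40 uM arachidonic acid was added, 30 min. Hydroperoxide was read by Fe-XO absorbance ratio 573/405 nm.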
# % is set by controls: 0 for no effect and ±100 for the full control effect; potency is the fitted concentration of half-maximal effect.
Structure (SMILES),Potency,"activity change, negative = inhibition"
O=C(OCc1nnc(-c2ccccc2)o1)c1ccc2c(c1)OCO2,"inconclusive: 35.5 µM [inhibitor, partial curve, poor fit]",–
Cc1ccc(Nc2c(-c3cccc(Cl)c3)nc3cccc(C)n23)cc1,"inconclusive: 5.62 µM [inhibitor, full curve, poor fit]",–
O=C(O)C(c1c[nH]c2cc(F)ccc12)N1CCN(CCNc2cc(=O)oc3ccccc23)CC1 (stereo not drawn),"inconclusive: 1.26 µM [inhibitor, full curve, poor fit]",–
O=S(=O)(NCc1nnc2ccccn12)c1ccc(Cl)cc1,"inconclusive: 126 µM [inhibitor, partial curve, poor fit]",–
Cc1cccc(C)c1-n1nnnc1SCC(=O)NCC1(N2CCOCC2)CCCCC1,"inconclusive: 17.8 µM [inhibitor, full curve, poor fit]",–
COc1ccc2[nH]cc(C(C(=O)O)N3CCN(CC(=O)N(C)C)CC3)c2c1 (stereo not drawn),–,inactive: 15.3%
COc1ccc(Cl)cc1NC(=O)c1c(NCc2cccs2)sc2c1CCC(C)C2 (stereo not drawn),–,inactive: 2.92%
COc1ccc(CCNC(=O)C2CCN(S(=O)(=O)c3ccc(C)cc3)CC2)cc1OC,"inconclusive: 0.398 µM [inhibitor, full curve, poor fit]",–
Cc1noc(C)c1-c1nccc2c(=O)cc(-c3ccccn3)oc12,"inconclusive: 15.8 µM [inhibitor, full curve]",–
CCCCNC(=O)C(C)N(CCN(C)C)C(=O)CCCCCN1C(=O)NC(c2ccc(Cl)cc2)C(C(=O)OCc2ccccc2)=C1C (stereo not drawn),"inconclusive: 50.1 µM [inhibitor, partial curve, poor fit]",–
Cc1cc(-c2ccc(C)c(S(=O)(=O)NCCc3ccccc3)c2)on1,"inconclusive: 100 µM [inhibitor, partial curve, poor fit]",–
CCOC(=O)c1cccn1C1C(=O)N(Cc2ccc(OC)cc2)c2ccc(F)cc21 (stereo not drawn),"inconclusive: 112 µM [inhibitor, single point]",–
Cc1ccc(NC(=O)C(C)c2ccc(-c3ccccc3)c(F)c2)cc1 (stereo not drawn),–,inactive: 428%
COc1ccc(N(C(=O)c2cc(OC)c(OC)c(OC)c2)S(=O)(=O)c2ccc(C)cc2)cc1,–,inactive: -20.1%
O=c1[nH]cnc2c1sc(=S)n2-c1ccccc1,"inconclusive: 14.1 µM [inhibitor, full curve]",–
FC(F)(F)c1cc(-c2ccco2)nc(NCc2ccccc2)n1,"inconclusive: 44.7 µM [inhibitor, single point]",–
Cc1cnc2c(S(=O)(=O)N(C)CC3CCCCC3)cccc2c1,–,inactive: 1.24%
c1cncc(CNc2ncnc3ccc(-c4ccc5c(c4)OCCO5)cc23)c1,"inconclusive: 44.7 µM [inhibitor, partial curve]",–
COc1ccc(/C=N\NC(=O)COc2ccc(C(C)(C)C)cc2)cc1Cn1nc(C)cc1C,–,inactive: 25.5%
O=C(/C=C/c1cccs1)N1CCCCCC1,"inconclusive: 39.8 µM [inhibitor, single point]",–
COc1ccc(NC(=O)CSc2cccc3cccnc23)c(OC)c1,–,inactive: -21.3%
CN(Cc1ccco1)c1ccnc(-c2cccc(C#N)c2)n1,"inconclusive: 11.2 µM [inhibitor, full curve, poor fit]",–
COc1ccc(CN2C(=O)CO[C@H](c3ccc(NC(=O)Nc4ccccc4)cc3)[C@H]2CO)cc1,"inconclusive: 31.6 µM [inhibitor, full curve]",–

# Single values from above.
# Potency with Cc1cccc(C)c1-n1nnnc1SCC(=O)NCC1(N2CCOCC2)CCCCC1 is entered as inconclusive: 17.8 µM [inhibitor, full curve, poor fit]
# activity change, negative = inhibition with Cc1ccc(NC(=O)C(C)c2ccc(-c3ccccc3)c(F)c2)cc1 (stereo not drawn) is entered as inactive: 428%
# Potency with O=C(O)C(c1c[nH]c2cc(F)ccc12)N1CCN(CCNc2cc(=O)oc3ccccc23)CC1 (stereo not drawn) is entered as inconclusive: 1.26 µM [inhibitor, full curve, poor fit]

# The results go on.

Structure (SMILES),Potency,"activity change, negative = inhibition"
Cn1cc(-c2cc3n(n2)CCC(=O)N3CC(=O)NCc2ccccc2)c2ccccc21,"inconclusive: 56.2 µM [inhibitor, partial curve, poor fit]",–
CCC(=O)Nc1ccc2c(c1)nc(Cn1cccn1)n2CC(C)C,–,inactive: -8.31%
O=C1OC(N2C(=O)CC[C@H]2C(=O)Nc2ccc(Br)cc2F)c2ccccc21 (stereo partly drawn),"inconclusive: 112 µM [inhibitor, single point]",–
CCOc1ccc(N(Cc2nc3nc(C)cc(C)n3n2)S(=O)(=O)c2ccccc2)cc1,–,inactive: -22.1%
O=S(=O)(Nc1ccc(S(=O)(=O)Nc2nccs2)cc1)c1ccc(Br)cc1,"inconclusive: 50.1 µM [inhibitor, partial curve, poor fit]",–
COC(=O)CN1C(=O)N/C(=C/c2ccc(C)o2)C1=O,"inconclusive: 35.5 µM [inhibitor, partial curve, poor fit]",–
CC(=O)n1c2ccccc2c2ccccc21,–,inactive: -5.98%
Cc1cc(-c2ccc(S(=O)(=O)Nc3cccc(Cl)c3C)s2)on1,–,inconclusive: -31.5% [inhibitor]
Cn1c(NC(=O)/C=C/c2ccccc2)cc(=O)n(C)c1=O,–,inactive: 1.9%
COc1ccc(C(=O)N2CCC3(CC2)NC(=O)N(c2ccccc2)N3)cn1,"inconclusive: 8.91 µM [inhibitor, full curve, poor fit]",–
Cc1ccccc1CN1CCN(C(=O)[C@H]2O[C@@H](n3cnc4c(N)ncnc43)[C@H](O)[C@@H]2O)CC1,"inconclusive: 2.82 µM [inhibitor, full curve, poor fit]",–
Cc1ccc2c(ccn2CCC(=O)Nc2nnc(CC(C)C)s2)c1,–,inactive: -3.23%
Cc1cc(=S)[nH]c2c(C)cccc12,"inconclusive: 89.1 µM [inhibitor, single point] and active: 1.12 µM",–
CC(C)C[C@H](NC(=O)C1(c2ccccc2)CCN(C(=O)OC(C)(C)C)CC1)C(=O)N1CCC[C@H]1C(=O)O,–,inactive: -0.34%
CCn1c(=O)n(CC)c2cc(S(=O)(=O)Nc3ccccc3C)c(C)cc21,–,inactive: 11.1%
CC1(C)CC(=O)C(N=Nc2cc(C(F)(F)F)ccc2Cl)=C(O)C1,–,inactive: -18.7%
COc1ccc2c(c1)Cc1sc(NC(=O)c3cccc(Cl)c3)nc1-2,–,inactive: 0.0148%
CCN(C(=O)COC(=O)c1nccnc1N)c1cccc2ccccc12,"inconclusive: 4.47 µM [inhibitor, full curve]",–
COc1cc(C2C(C(=O)c3cccs3)=C(O)C(=O)N2Cc2ccco2)cc(OC)c1OC (stereo not drawn),"inconclusive: 2.82 µM [inhibitor, partial curve, poor fit]",–
CC1CCN(S(=O)(=O)c2ccc3nc(N4CCN(c5ccccc5F)CC4)ccc3c2)CC1,"inconclusive: 50.1 µM [inhibitor, partial curve, poor fit]",–
CC(=O)c1ccc(OCc2cc(C(=O)N3CCC(c4ccncc4)CC3)no2)cc1,–,inactive: -2.07%
O=C1CCS/C(=N\N=C\c2ccc(Cl)cc2Cl)N1,–,inactive: -4.01%
COCc1cn(C[C@H]2C[C@@H](NC(=O)c3cccnc3)[C@H](O)[C@@H]2O)nn1,–,inactive: -18.9% [at 176 µM]

Structure (SMILES),Potency,"activity change, negative = inhibition"
COc1ccc(S(=O)(=O)Nc2cc(SCC(=O)O)c(O)c3ccccc23)cc1,"inconclusive: 2.51 µM [inhibitor, full curve, poor fit]",–
COc1ccc(-c2cc(N3CCCN(C(=O)c4ccc(OC)cc4OC)CC3)n[nH]2)cc1,–,inactive: -12.2%
COc1cc2c(cc1OC)CN(c1nc(CN3CCCC3)nc3sc(C)c(C)c13)CC2,–,inactive: -15.4%
O=S(=O)(NC(=S)Nc1ccccc1)c1ccc(F)cc1,"inconclusive: 44.7 µM [inhibitor, partial curve, poor fit]",–
O=C(Cc1ccc(NC(=O)C2CCN(C(=O)C3CCCCC3)CC2)cc1)Nc1cccc(C(=O)N2CCCCC2)c1,"inconclusive: 28.2 µM [inhibitor, single point]",–
O=C(N/N=C/c1cc([N+](=O)[O-])ccc1O)C(O)(c1ccccc1)c1ccccc1,"inconclusive: 0.447 µM [inhibitor, full curve, poor fit]",–
COc1cc(C#N)ccc1OC(C)C(=O)Nc1cccc(C)c1 (stereo not drawn),–,inactive: 26.2%
COC(=O)C1=C(C)NC(=S)NC1c1sccc1C (stereo not drawn),"inconclusive: 4.47 µM [inhibitor, partial curve, poor fit]",–
CCC(NC(=O)CN(C)Cc1ccc(C)o1)c1ccc(C)cc1 (stereo not drawn),"inconclusive: 28.2 µM [inhibitor, partial curve]",–
FC(F)(F)c1cccc(N2CCN(Cc3nnc(-c4ccccc4)o3)CC2)c1,"inconclusive: 50.1 µM [inhibitor, single point]",–
COc1cc2cc(C(=O)NCC(=O)Nc3ccc4c(c3)OCCO4)[nH]c2c(OC)c1OC,–,inactive: -1.23%
CC(C)c1ccc(-c2noc(SCC(=O)N3CCCCC3)n2)cc1,"inconclusive: 56.2 µM [inhibitor, partial curve, poor fit]",–
CCN(CC)CCn1c(O)c(N=O)c2ccccc21,–,inactive: -29.5%
CCOc1ccc(/C=C2\SC(=S)N(CCC(=O)Nc3ccc(C(=O)O)cc3)C2=O)cc1,"inconclusive: 39.8 µM [inhibitor, partial curve, poor fit]",–
O=C(c1cc(-c2ccco2)[nH]n1)N1CCN(c2ccccc2)CC1,–,inactive: 4.9%
Cc1ccc(OCC(=O)Nc2cccc(C)n2)c(C)c1,–,inactive: 0%
CCCN(CCC)CCCNC(=O)c1nn(C)c2c1CS(=O)(=O)c1ccccc1-2,"inconclusive: 2.24 µM [inhibitor, full curve, poor fit]",–
Cc1ccc(C2Nc3ccccc3C(=O)N2Cc2ccco2)cc1 (stereo not drawn),"inconclusive: 44.7 µM [inhibitor, partial curve, poor fit]",–
CC(C)(C)NC(=O)CCN(/N=C/c1ccncc1)C1=NS(=O)(=O)c2ccccc21,"inconclusive: 44.7 µM [inhibitor, partial curve, poor fit]",–
CC(=O)N1C[C@@H]2CCCN3CCC[C@@H]([C@H]23)[C@H]1CCCC(=O)NCCCc1ccccc1,–,inactive: 47.2%
COc1ccc(C(=O)Nc2cc(C(C)=O)c(C)oc2=O)cc1,"inconclusive: 100 µM [inhibitor, single point]",–
Cn1nccc1C(=O)NCCC1CCN(C(=O)Nc2cc(F)cc(F)c2)CC1,–,inactive: 25.9%

# Already shown: two of the compounds above.
Structure (SMILES),Potency,"activity change, negative = inhibition"
COc1cc2cc(C(=O)NCC(=O)Nc3ccc4c(c3)OCCO4)[nH]c2c(OC)c1OC,–,inactive: -1.23%
CC(C)c1ccc(-c2noc(SCC(=O)N3CCCCC3)n2)cc1,"inconclusive: 56.2 µM [inhibitor, partial curve, poor fit]",–
